Assay results published in US11254633B2, “Cannabis thin layer decarboxylation” (priority 2018, dated 2022).
At least one structure is not confirmed: it was looked up by name or label, or the drawing left a doubt.

Legend:
[1] = cited from earlier work

| SMILES | THC level relative to its peak | THC levels on continued heating until peak CBD level | heating time at which THC has declined to zero | CBN production (FIG. 17) | heating time at which CBN appears | heating time at which the compound peaks / reaches its maximum | activity relative to 9 THC [1] |
| --- | --- | --- | --- | --- | --- | --- | --- |
| CCCCCc1cc(O)c2c(c1)OC(C)(C)[C@@H]1CCC(C)=C[C@@H]21 [THC] | 50% | remain constant without conversion to CBN until after the CBD level peaked | 40 min | – | – | – | – |
| CCCCCc1cc(O)c2c(c1)OC(C)(C)c1ccc(C)cc1-2 [CBN] | – | – | – | remarkably absent | 320 s | 20 min | Approximately 10% |
